Reference: paper PMC4164784, “4E-BPs require non-canonical 4E-binding motifs and a lateral surface of eIF4E to repress translation” (Nature Communications, 2014)
Where a chain is given by its changes, count along the chain named. Results are given in words; binding and its absence hold for the method and conditions named. For part of these data: Binding seen in cells or lysates may run through a third protein. Some entries that bind do so weakly or less than the wild type. Where a sequence is shown, tags or fusion partners need not be part of it. Each block holds one binder with its values, some of them ahead of it.

Experiments:
[1] = target: T1, SHN-eIF4E (full length, WT) (Drosophila melanogaster) (UniProt P48598); assay: pull-down; preassembled complexes of SHN-eIF4E (WT or II-AA) with GST-eIF4G, GST-CUP, GST-Thor or GST-4E-T (coexpressed, purified on glutathione agarose) recovered on Strep-Tactin beads; both purified
T1 sequence: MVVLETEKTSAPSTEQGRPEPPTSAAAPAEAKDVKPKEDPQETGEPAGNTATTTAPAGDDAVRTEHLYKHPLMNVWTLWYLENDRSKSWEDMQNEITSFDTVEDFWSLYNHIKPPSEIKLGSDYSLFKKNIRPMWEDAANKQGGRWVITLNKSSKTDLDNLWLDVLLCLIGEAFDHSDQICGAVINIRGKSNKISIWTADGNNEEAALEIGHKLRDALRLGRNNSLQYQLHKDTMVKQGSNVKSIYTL

[2] = target: T2, SHN-eIF4E (full length, II-AA mutant) (Drosophila melanogaster) (UniProt P48598); assay: pull-down; competition: those purified complexes mixed with bacterial lysates expressing MBP-eIF4G-GB1 (or MBP), 30 min at 4 °C; Strep-Tactin beads; only the target purified
T2 sequence: T1 sequence with I96A, I112A

[3] = target: T3, MBP-eIF4G-GB1 (residues 578–650) (Drosophila melanogaster) (UniProt O61380); assay: pull-down; MBP pull-down on amylose resin; purified eIF4E (69–248) added to cleared bacterial lysates with the MBP- and GB1-tagged fragments; 50 mM HEPES pH 7.2, 200 mM NaCl, 2 mM DTT; 1 h at 4 °C; Coomassie; only the binder purified
T3 sequence: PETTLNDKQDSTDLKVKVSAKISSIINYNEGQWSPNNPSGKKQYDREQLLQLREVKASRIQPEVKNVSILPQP

[4] = target: T4, MBP-CUP C+NC-GB1 (Drosophila melanogaster) (UniProt Q9VMA3); assay: as above
T4 sequence: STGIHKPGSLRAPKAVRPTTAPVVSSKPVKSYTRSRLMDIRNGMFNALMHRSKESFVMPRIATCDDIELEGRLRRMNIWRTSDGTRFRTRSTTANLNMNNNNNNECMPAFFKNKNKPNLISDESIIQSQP

[5] = target: T5, HA-eIF4E II-AA (Drosophila melanogaster) (UniProt P48598); assay: co-IP; S2 cell lysates; HA-eIF4E (WT or mutated) with GFP-tagged full-length 4E-BPs and endogenous eIF4G; western blot
T5 sequence: T1 sequence with I96A, I112A

[6] = target: T6, HA-eIF4E (WT) (Drosophila melanogaster) (UniProt P48598); assay: as above
T6 sequence: T1 sequence

[7] = target: T7, MBP-Thor (full length, NC*) (Drosophila melanogaster) (UniProt Q9XZ56); assay: pull-down; eIF4E coexpressed with the GST- or MBP-tagged bait in E. coli; cleared lysates on glutathione agarose or amylose resin, 1 h; 20 mM Tris–HCl pH 7.5, 100 mM NaCl, 1 mM DTT; Coomassie
T7 sequence: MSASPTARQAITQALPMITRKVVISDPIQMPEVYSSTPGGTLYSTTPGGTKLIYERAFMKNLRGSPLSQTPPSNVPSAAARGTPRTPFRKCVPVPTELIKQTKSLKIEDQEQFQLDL

[8] = target: T8, MBP-Thor (full length, ΔNC) (Drosophila melanogaster) (UniProt Q9XZ56); assay: as above
T8 sequence: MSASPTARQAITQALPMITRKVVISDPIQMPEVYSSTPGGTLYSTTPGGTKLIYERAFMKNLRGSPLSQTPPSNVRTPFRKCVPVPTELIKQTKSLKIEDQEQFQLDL

[9] = target: T9, GST-CUP-GB1 (residues 311–440, WT) (Drosophila melanogaster) (UniProt Q9VMA3); assay: as above
T9 sequence: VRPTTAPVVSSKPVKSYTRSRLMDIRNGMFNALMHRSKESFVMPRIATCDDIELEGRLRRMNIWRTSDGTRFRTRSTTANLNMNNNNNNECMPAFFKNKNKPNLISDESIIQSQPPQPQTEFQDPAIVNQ

[10] = target: T10, MBP-eIF4G (residues 578–650, WT) (Drosophila melanogaster) (UniProt O61380); assay: as above
T10 sequence: T3 sequence

[11] = target: T11, MBP-4E-T (fragment 1–58, WT) (Drosophila melanogaster) (UniProt Q8IH18); assay: as above
T11 sequence: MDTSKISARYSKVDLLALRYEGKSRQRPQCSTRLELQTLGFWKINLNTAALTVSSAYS

B2: MBP-eIF4G-GB1 (residues 578–650) (domain or fragment, UniProt O61380 578-650)
chain: T3 sequence
binding [2]: binds

B3: eIF4E (residues 69–248), purified (domain or fragment, UniProt P48598-2 69-248)
chain: KHPLMNVWTLWYLENDRSKSWEDMQNEITSFDTVEDFWSLYNHIKPPSEIKLGSDYSLFKKNIRPMWEDAANKQGGRWVITLNKSSKTDLDNLWLDVLLCLIGEAFDHSDQICGAVINIRGKSNKISIWTADGNNEEAALEIGHKLRDALRLGRNNSLQYQLHKDTMVKQGSNVKSIYTL
binding [3]: binds
binding [4]: binds

B5: GFP-Thor (full length) (protein, UniProt Q9XZ56 1-117)
chain: T7 sequence with A78C, A79L, A80L
binding [6]: binds

B8: SHN-eIF4E (full length, WT) (protein, UniProt P48598-2 1-248)
chain: T1 sequence
binding [11]: binds

Other lines, results leading:

binding [1]: binds
B1: GST-4E-T (residues 1–58) (domain or fragment, UniProt Q8IH18 1-58)
chain: T11 sequence

binding [5]: no binding
binding [6]: binds
B4: GFP-CUP (full length) (protein, UniProt Q9VMA3 1-1117)
chain: MQMAEAEQENGAGALKIATNAGATDRPAHQQLPLPVEDQQDEVLTPAEKGKFEYPPPPPPPTPVQAPLATKATALNASQEHDDDEANSEKWEDPCAPPPPPPLPTSAFLATGLGYLKLPAFKLKDALEKAITKLEANKRTLKASPESSRSIKNKNVVALEMLPRRSNPETIGDGSMLASTSTAVMLQTKKPAVIVEMERRCKIINLLAKQNQILESISGEAIPMHGPSKHLHEDEGLTLQVLSARASTPYTQPSSMLSCTAVSCDLEHDSPRKQVASKEAVPEQQSSQVQQKRPPSTGIHKPGSLRAPKAVRPTTAPVVSSKPVKSYTRSRLMDIRNGMFNALMHRSKESFVMPRIATCDDIELEGRLRRMNIWRTSDGTRFRTRSTTANLNMNNNNNNECMPAFFKNKNKPNLISDESIIQSQPPQPQTEFQDPAIVNQRRIGSGRLNHSKWGYNDEDYHSYHNGKSQHMEEVNSKNSKNMTVLQFFDNGEISSQPQRRPNTPVMGMSINRSENDTLHSNESSEDLSRANENYVKRVMSGFLVVSKPKSRDVEDRHHRRYRNQNEEPEWFSCGPTSRLDTIELCGFDEDEEKMLKEGNKNHGLGETERETSKQKMDHKYKWTHAEPMGRSKYMPKHDTNNNHNVENMNNVMATEHQQQKEEKRPGSGRSFQFDKFNQSQQNYESSSYVNHQQPPQTQPQQMQQQSNTNTNNSKFMSFFANEGNSSSSSLNEFFKQAINQGHGNNPEQPKSLGHIGQMPSVDQLEAKWRRNSLNNVGETANKQTDNFQKLIGSLSSAKPQSQAVGYDAISNFIMQQQQYQQQQQKQHLIIQQQQQHTAFLASLQLKAILGRADTQLLLLRLTKGEISKHGLLVQLANPRLTDMDREAITAVLQFTNTQQQQQQHKQQLDMLSSTVIASQLQNLHNLAIVQQTLAARQQPQHNPQTQAPHQLSQEDLQAHANVIMRNAVMKRKIEEQTSKLINGGAKHQAQQQYLNRGQQRQARPDANSNALLHALISGGGNNHASGYPMNGQPQKHHSNLRFGDNQNFQSFESNQPHFATQYKQQYQQSQQQHPHQQPQQLNSLHQNNAGAVNSFNKAQMQAQSAISMLPNSGDEFH

binding [5]: no binding
binding [6]: binds
B6: GFP-4E-T (full length, WT) (protein, UniProt Q8IH18 1-1010)
chain: MDTSKISARYSKVDLLALRYEGKSRQRPQCSTRLELQTLGFWKINLNTAALTVSSAYSNQNKNRLSPEADNSSLICSNSSSISSRRAMRNRERANNYYQRFVPTDSLLISGEDKDKDALSHGQPYKLNIIDHRSISSSHLMPAFAKRRFVISKGSNSEESNEGINTCASKGKAASSPSRKGSELDTAETCLNFVQPDHDQCMSSSPTFSTSRQERRIGSGRLLPRSDNWDYKNEKTVEASIENEKETSPNGSGSTSSLNQHNQSQHRSRTFSGRLVERVPEVTDRRFQYDSKKSFDRQGINNRRISGKEPFSTQSRSKRGNSYLIHEEPEWFSAGPKSQLETIDLHGFEDLEKNEERSVTEDKNNQIQQLDKNLDAQASKDEASMRNSNDSLNFREVIPSDEKKHTDENVVTSIQNSTDLGHPNKNKPIQMQPSQNPESEFNFDAFLNMHPLDNSVLSNDETGKSDSKGTSRFSRWFRQKEAANNNEFPGFRESHAQEKRGIPSVKDLEAQMIKVDMRTDLINPIAGSLCQTVQMEKPIARDTEAFKKLLQQLGSQARQHHPCNDDCRTINLSNIANHVHLESKLHQKINDGHLQQPELSVNVPTMPTSSHVFLQKRLEIQHLIQRLHCGDVSHDFLEKELDNPSTPAATKDVIATVLNEYSHSKRNPVVTGDPNIFTQQSFLQPQSVHQHYSQELHSQNTANHTINQLISHGNSPTPLAFTPTSVLRKMTADKDTQSPSTYCQNPQYHVHQQNAKQVGTRENVLEPQLTATMAVQPRMILGGGNFAIGQNNQHLSPNMSQSRNQQVLKWTSGNMQMVHGKTFGRPILKGGLNSMPHSNSALPFTAHKIEMQPIHQPHLQQQQHRFKAVQSVESNLNTESVHQNITSPVGWHQLYMQHQQQHHHTRQQLSQRVIYGEMHRQSNPQMSPPVPGFSDSSDSGNVIKANSLTSPSYQRDERISSPTNQLAQWFSPELLAKASAGKLPLLNVNQALSLEEFERSIQHSSGVVHN

binding [7]: binds
binding [8]: binds
binding [9]: binds
binding [10]: binds
B7: His6-eIF4E (full length, II-AA mutant) (protein, UniProt P48598-2 1-248)
chain: T1 sequence with I96A, I112A

binding [11]: binds
B9: SHN-eIF4E (full length, II-AA mutant) (protein, UniProt P48598-2 1-248)
chain: T1 sequence with I96A, I112A
